Source: patent publication US20230346790A1, “PHARMACEUTICAL COMPOSITION FOR PREVENTION OR TREATMENT OF CANCERS ASSOCIATED WITH KRAS MUTATION” (WELLMARKER BIO CO., LTD., priority 2020, published 2023)
No constants are given. Whether binding was seen depends on the method and setting. Binding seen in cells or lysates may run through a third protein. Some results given as binding are weak or reduced against the parent protein; the word gives no strength.

The chains behind the UniProt entries cited, without tags or fusion partners. Where a name states a change or a piece, a line headed by the entry shows the natural chain unless it says otherwise. Residues count along the entry.
UniProt P35222, residues 2-781: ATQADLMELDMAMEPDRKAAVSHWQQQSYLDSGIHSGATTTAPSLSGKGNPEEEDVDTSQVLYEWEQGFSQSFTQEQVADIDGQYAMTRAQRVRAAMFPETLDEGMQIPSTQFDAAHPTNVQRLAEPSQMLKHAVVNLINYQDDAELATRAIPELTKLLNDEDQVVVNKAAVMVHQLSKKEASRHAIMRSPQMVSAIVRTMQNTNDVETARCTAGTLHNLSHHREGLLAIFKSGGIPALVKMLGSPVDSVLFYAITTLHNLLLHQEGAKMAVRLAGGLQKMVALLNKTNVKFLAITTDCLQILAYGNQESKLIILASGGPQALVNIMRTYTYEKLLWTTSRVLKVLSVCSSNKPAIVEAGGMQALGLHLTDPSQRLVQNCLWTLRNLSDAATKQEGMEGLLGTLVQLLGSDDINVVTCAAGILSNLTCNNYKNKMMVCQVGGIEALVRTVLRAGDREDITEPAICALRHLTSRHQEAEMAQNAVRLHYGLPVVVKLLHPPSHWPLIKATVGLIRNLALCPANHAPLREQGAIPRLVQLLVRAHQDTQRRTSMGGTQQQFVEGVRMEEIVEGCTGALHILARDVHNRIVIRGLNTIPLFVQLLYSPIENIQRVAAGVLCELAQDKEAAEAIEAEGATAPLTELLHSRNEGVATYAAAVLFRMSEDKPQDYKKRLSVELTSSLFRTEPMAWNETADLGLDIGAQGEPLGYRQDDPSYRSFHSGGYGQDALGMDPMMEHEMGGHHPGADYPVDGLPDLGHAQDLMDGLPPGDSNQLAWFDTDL
UniProt Q04912: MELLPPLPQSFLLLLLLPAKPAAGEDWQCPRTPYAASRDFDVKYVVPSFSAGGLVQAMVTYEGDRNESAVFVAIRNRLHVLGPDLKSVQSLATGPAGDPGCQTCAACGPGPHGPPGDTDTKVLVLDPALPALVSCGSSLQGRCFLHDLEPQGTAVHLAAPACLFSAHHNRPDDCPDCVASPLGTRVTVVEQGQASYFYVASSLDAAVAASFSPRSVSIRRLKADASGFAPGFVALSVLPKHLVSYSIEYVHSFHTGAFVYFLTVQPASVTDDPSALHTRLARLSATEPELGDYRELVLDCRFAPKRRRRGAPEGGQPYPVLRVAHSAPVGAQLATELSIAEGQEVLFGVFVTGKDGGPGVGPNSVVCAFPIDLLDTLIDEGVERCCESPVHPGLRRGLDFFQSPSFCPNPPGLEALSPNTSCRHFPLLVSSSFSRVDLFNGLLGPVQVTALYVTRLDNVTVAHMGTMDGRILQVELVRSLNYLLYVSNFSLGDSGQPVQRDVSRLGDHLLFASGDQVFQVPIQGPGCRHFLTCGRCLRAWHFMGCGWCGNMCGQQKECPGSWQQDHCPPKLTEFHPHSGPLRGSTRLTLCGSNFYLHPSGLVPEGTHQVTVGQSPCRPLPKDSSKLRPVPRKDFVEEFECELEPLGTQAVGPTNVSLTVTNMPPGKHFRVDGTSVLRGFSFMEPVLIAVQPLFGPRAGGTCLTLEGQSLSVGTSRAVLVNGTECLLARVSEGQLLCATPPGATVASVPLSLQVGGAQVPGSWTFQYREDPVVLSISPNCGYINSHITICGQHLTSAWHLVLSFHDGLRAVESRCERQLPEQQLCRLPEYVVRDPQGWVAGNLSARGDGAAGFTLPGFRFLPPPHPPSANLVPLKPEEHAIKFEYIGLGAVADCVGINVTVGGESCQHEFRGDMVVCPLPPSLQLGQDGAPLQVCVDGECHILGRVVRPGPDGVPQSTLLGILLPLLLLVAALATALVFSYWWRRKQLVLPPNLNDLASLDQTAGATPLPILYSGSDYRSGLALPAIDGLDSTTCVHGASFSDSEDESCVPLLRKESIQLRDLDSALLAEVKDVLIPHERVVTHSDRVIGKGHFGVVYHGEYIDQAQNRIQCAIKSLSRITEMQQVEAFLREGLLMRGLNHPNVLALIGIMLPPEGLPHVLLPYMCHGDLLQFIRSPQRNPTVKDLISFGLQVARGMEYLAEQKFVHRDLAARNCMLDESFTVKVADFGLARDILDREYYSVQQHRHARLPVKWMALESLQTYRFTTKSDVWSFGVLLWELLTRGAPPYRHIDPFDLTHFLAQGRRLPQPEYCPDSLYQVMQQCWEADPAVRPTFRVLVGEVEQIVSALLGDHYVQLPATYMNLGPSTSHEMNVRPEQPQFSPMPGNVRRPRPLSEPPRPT

Molecular target: β-catenin (UniProt P35222)
Assay: western blotting of lysate of the cetuximab-resistant LIM1215 cell line R2 (right of FIG. 5); pull-down format not described

For “RONΔ155 (mutant recepteur d'origine nantais in which exons 5, 6, and 11 are deleted) (from UniProt Q04912 25-1400) (receptor)”, the binding was “binds”.
